Measured values reported in PubChem BioAssay AID493014 (National Center for Advancing Translational Sciences (NCATS), 2011).
Some of the results follow. Shown are side measurements of this screen, not its main read-out; they come without a call. Most of these compounds were active or inconclusive in the main read-out, so they are no random draw. Words in brackets tell the shape of the fitted curve; partial curves, single points and poor fits give uncertain potencies.

Experiment: qHTS Assay to Find Inhibitors of Chronic Active B-Cell Receptor Signaling
Conditions: ABC-DLBCL IkBa-CBG/CBR reporter, luminescence ratio (green luciferase fused to IkBa over red control in TMD8 lymphoma cells), 4 h
Outline: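 Cell line TMD8 (human ABC DLBCL), stably expressing tet-inducible CBG68-IkBa fusion and CBR; IMDM/0.5% FBS; cpd up to 46 uM; dox induction, 4 h, 37C/5% CO2; dual luminescence; green/red ratio; MG132 control.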

[1] = measured here: CBR red luminescence, cell number
[2] = measured here: IkBa-CBG green luminescence

Compound	AC50 [1]	AC50 [2]
COc1ccc(NC(=O)Nc2cccc3c2O[C@H](CN(C)S(=O)(=O)c2cccs2)[C@@H](C)CN([C@H](C)CO)C3=O)cc1	0.058 µM [rising, full curve, poor fit]	–
COc1cc(/C=N/NC(=O)c2cc(C)oc2C)ccc1O	14.1 µM [falling, partial curve, poor fit]	–
CC(NC(=O)C12CC3CC(CC(C3)C1)C2)c1ccc2c(c1)OCCO2 (stereo unspecified)	29.1 µM [rising, single point]	–
COc1ccccc1NC(=O)c1cc2ccc3cccnc3c2[nH]1	11.2 µM [falling, partial curve]	–
CC(=O)Oc1ccc(C(=O)Nc2nccs2)cc1	2.31 µM [falling, full curve, poor fit]	–
CCOC(=O)c1ccc(NS(C)(=O)=O)cc1	6.51 µM [rising, partial curve, poor fit]	–
Cc1ccc(S(=O)(=O)N2C(=O)c3cccc4cccc2c34)cc1	20 µM [rising, partial curve, poor fit]	–
Cc1ccc(C(=O)NCCCC(=O)O)o1	0.411 µM [rising, full curve, poor fit]	–
O=C(c1ccco1)N(Cc1cccs1)C1CCS(=O)(=O)C1 (stereo unspecified)	3.66 µM [falling, partial curve, poor fit]	–
COc1ccc(C(=O)C(/C=N/O)=N/Nc2ccc(F)cc2)cc1	2 µM [rising, partial curve, poor fit]	–
Cc1cc2oc(=O)cc(-c3ccccc3)c2c(C)c1-c1ccc(OC(F)(F)F)cc1	29.1 µM [rising, single point]	18.4 µM [falling, partial curve, poor fit]
Cc1ccc(SCc2cc(=O)[nH]c(/N=C(\N)Nc3ccccc3Sc3ccccc3)n2)cc1	6.51 µM [rising, partial curve, poor fit]	–
COC(=O)CCC(=O)Nc1ccc(NC(=O)CCC(=O)OC)cc1	23.1 µM [falling, single point]	–
Cc1n[nH]c(=S)n1-c1ccc(Cl)cc1	6.31 µM [rising, single point]	–
CC(=O)N(Cc1ccc(F)cc1)C1=C(NCCc2ccccc2)C(=O)c2ccccc2C1=O	2.06 µM [falling, partial curve, poor fit]	–
COc1ccc(C)cc1NC(=O)CSc1nc(=O)n(Cc2ccncc2)c2c1CCC2	35.5 µM [falling, single point]	–
C=Cc1ccc(CN2C(=O)N(c3ccc(CC)cc3)S(=O)(=O)c3ccccc32)cc1	4.47 µM [rising, single point]	–
CCOC(=O)C1CCN(C(=O)CSc2ccc(Cl)cc2)CC1	13 µM [falling, partial curve]	–
Cc1[nH]c(SCC(=O)c2c(N)n(C)c(=O)n(C)c2=O)nc1Cc1ccccc1	1.16 µM [rising, full curve, poor fit]	–
Cc1ccccc1NC(=O)Nc1ccc(C(F)(F)F)cc1	8.91 µM [falling, partial curve]	–
CCCCc1c(C(=O)O)cc(OC)cc1C(=O)O	2 µM [rising, partial curve]	–

Compound	AC50 [1]	AC50 [2]
Cc1ccc(C(=O)N/C(=C/c2cccs2)C(=O)N2CCCCC2)cc1	22.4 µM [falling, single point]	–
CCOC(=O)c1nnn(-c2nonc2N)c1CN1CCc2ccccc2C1	18.4 µM [falling, single point]	–
Cc1nnc(NC(=O)Cc2ccc(OCc3c(C)noc3C)cc2)s1	17.8 µM [rising, single point]	–
O=c1c2ccccc2c(C=NCCCN2CCOCC2)c(O)n1Cc1ccc2c(c1)OCO2	15.8 µM [falling, single point]	–
Cc1c(C(=O)Nc2ccc(S(=O)(=O)Nc3ncccn3)cc2)oc2ccc(F)cc12	8.91 µM [falling, partial curve, poor fit]	–
O=C(CSc1nc2ccccc2[nH]1)c1c[nH]c2ccccc12	10 µM [falling, partial curve, poor fit]	–
CCCC(=O)c1cn(CC(=O)OC)c2ccccc12	35.5 µM [rising, single point]	–
CCN(CC)c1ccc2cc(NC(=O)CCC(=O)O)c(=O)oc2c1	1.46 µM [falling, full curve]	–
CCN(CC)S(=O)(=O)c1cc(C(=O)OC)ccc1Cl	20 µM [rising, single point]	–
Cc1ccc(-c2cc(C(F)(F)F)n3ncc(C(=O)N4CCN(C)CC4)c3n2)cc1	12.6 µM [rising, partial curve]	–
Cn1nc(C(F)(F)F)c(C(=O)Nc2ccc(F)cc2F)c1Sc1ccc(Cl)cc1	35.5 µM [falling, single point]	–
Cc1ccc(/C=N/NC(=O)c2cccc3ccccc23)o1	17.8 µM [falling, partial curve, poor fit]	–
Cc1ccc(Cn2nnc3c(=O)[nH]c(C4CCN(S(=O)(=O)c5ccc(S(=O)(=O)NC6CC6)cc5)CC4)nc32)cc1	1.26 µM [falling, full curve, poor fit]	–
Cc1cccc(C2c3[nH]c4ccccc4c3CCN2C(=O)Cc2n[nH]c(C)n2)n1 (stereo unspecified)	6.31 µM [rising, partial curve, poor fit]	–
CS(=O)(=O)NCCOc1ccc(S(=O)(=O)NCCOc2ccccc2)cc1	2.51 µM [rising, full curve, poor fit]	–
O=C(CSc1nnc(-c2cc3ccccc3cc2O)n1Cc1ccco1)c1ccc(F)cc1	31.6 µM [falling, single point]	–
COc1cccc(NC(=O)CSc2nc3ccccc3n2C)c1	35.5 µM [falling, single point]	–
Brc1ccc(-c2csc(-c3ccncc3)n2)cc1	1.84 µM [rising, full curve]	–
CCCS(=O)(=O)Nc1ccc(-c2ccc3nnc(C)n3n2)cc1	7.94 µM [rising, partial curve]	17.8 µM [falling, partial curve, poor fit]
O=C(N/N=C\C=C\c1ccc([N+](=O)[O-])o1)c1cccs1	35.5 µM [falling, single point]	–
CC(=O)n1c(C=Nc2ccccc2)c(O)c2ccccc21	0.316 µM [falling, full curve, poor fit]	–

In the list so far, 4 contain a CF3 group.
Compound	AC50 [1]	AC50 [2]
Cc1cc2oc(=O)cc(-c3ccccc3)c2c(C)c1-c1ccc(OC(F)(F)F)cc1	29.1 µM [rising, single point]	18.4 µM [falling, partial curve, poor fit]
Cc1ccccc1NC(=O)Nc1ccc(C(F)(F)F)cc1	8.91 µM [falling, partial curve]	–
Cc1ccc(-c2cc(C(F)(F)F)n3ncc(C(=O)N4CCN(C)CC4)c3n2)cc1	12.6 µM [rising, partial curve]	–
Cn1nc(C(F)(F)F)c(C(=O)Nc2ccc(F)cc2F)c1Sc1ccc(Cl)cc1	35.5 µM [falling, single point]	–

Additional records follow:

Compound	AC50 [1]	AC50 [2]
COc1cccc(-n2cc3c(c2-c2ccccc2)c(=O)n(C)c(=O)n3C)c1	35.5 µM [falling, single point]	–
COC(=O)c1cc(=O)n(C2CC2)c(=NC2CC2)s1	8.91 µM [falling, partial curve]	–
CCN(CC)CCNc1nc(-c2ccco2)c2c(c1C#N)CC(C)(C)OC2	1.26 µM [falling, full curve]	–
O=C(C1=NN[C@@H]2C(=O)N(c3cccc(F)c3)C(=O)[C@H]12)c1ccc2ccccc2n1	29.1 µM [falling, single point]	–
CSC1=NSC2=NC(=O)/C(=C\c3ccc(OC(=O)c4ccco4)cc3)C(=N)N12	1.12 µM [rising, partial curve, poor fit]	–
Cc1ccc(Nc2c(N)c(=O)oc3ccccc23)cc1	2.59 µM [rising, partial curve]	–
COc1ccc2c(c1)C(=O)N1[C@H]3c4cc(OC)ccc4OC[C@@H]3[C@H](c3ccccc3)[C@]1(C)C(=O)N2	9.2 µM [falling, partial curve, poor fit]	18.4 µM [rising, partial curve, poor fit]
COc1ccc(C)cc1S(=O)(=O)Nc1cc2c3c(c1)CCN3C(=O)CC2	29.1 µM [rising, single point]	18.4 µM [falling, partial curve, poor fit]
Cc1ccc(-n2ncc3c(NCCCn4ccnc4)ncnc32)cc1Cl	12.6 µM [falling, partial curve]	–
CC(C)CC(COCc1cccc(Cl)c1)N1CCN(C(=O)c2ccc(C(F)(F)F)cc2)CCC1=O (stereo unspecified)	23.1 µM [falling, single point]	–
Cc1ccc(-c2nc3nc4ccccc4nc3n2Cc2ccco2)cc1	7.31 µM [falling, partial curve]	–
C#CCSc1nnc(-c2sc3ccccc3c2Cl)o1	3.16 µM [rising, partial curve, poor fit]	–
CNNC(=S)Nc1cccc(C(F)(F)F)c1	0.794 µM [rising, full curve, poor fit]	–
COc1cccc(CN2CCN(Cc3cccc(Oc4ccccc4)c3)CC2)c1OC	0.447 µM [rising, partial curve, poor fit]	–
Nc1ccc2oc(-c3ccc4nc[nH]c4c3)nc2c1	11.6 µM [falling, single point]	–
O=C(Cc1ccc(F)cc1)NCc1cccnc1	6.31 µM [rising, single point]	–
Cc1ccc(-n2c(C)c(C)c3c(NCCN(C)C)ncnc32)cc1	35.5 µM [rising, single point]	–
c1ccc(-c2cn3nc(-c4ccccc4)c(-c4ccccc4)nc3n2)cc1	6.31 µM [rising, partial curve]	–
Cc1cccc(NC(=O)CN2CCc3cc4c(cc3C2)OCCCO4)c1	20 µM [falling, single point]	–
CCc1cc(C(=O)c2ccc(OC)cc2)c(NC(=O)COCC(=O)O)s1	8.91 µM [falling, partial curve, poor fit]	–
